# Assay results taken from the supplement of paper PMC10849652.
# Chains of the proteins cited; added tags and fusions are not shown. Lines headed by an entry give the natural chain unless they say otherwise; changes in a name come on top.
# UniProt P00568: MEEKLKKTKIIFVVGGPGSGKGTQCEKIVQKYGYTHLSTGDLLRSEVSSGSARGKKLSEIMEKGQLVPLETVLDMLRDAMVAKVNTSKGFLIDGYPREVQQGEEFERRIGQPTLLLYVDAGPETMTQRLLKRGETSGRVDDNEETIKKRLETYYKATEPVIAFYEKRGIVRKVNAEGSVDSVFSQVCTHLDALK
# UniProt Q9H2P0: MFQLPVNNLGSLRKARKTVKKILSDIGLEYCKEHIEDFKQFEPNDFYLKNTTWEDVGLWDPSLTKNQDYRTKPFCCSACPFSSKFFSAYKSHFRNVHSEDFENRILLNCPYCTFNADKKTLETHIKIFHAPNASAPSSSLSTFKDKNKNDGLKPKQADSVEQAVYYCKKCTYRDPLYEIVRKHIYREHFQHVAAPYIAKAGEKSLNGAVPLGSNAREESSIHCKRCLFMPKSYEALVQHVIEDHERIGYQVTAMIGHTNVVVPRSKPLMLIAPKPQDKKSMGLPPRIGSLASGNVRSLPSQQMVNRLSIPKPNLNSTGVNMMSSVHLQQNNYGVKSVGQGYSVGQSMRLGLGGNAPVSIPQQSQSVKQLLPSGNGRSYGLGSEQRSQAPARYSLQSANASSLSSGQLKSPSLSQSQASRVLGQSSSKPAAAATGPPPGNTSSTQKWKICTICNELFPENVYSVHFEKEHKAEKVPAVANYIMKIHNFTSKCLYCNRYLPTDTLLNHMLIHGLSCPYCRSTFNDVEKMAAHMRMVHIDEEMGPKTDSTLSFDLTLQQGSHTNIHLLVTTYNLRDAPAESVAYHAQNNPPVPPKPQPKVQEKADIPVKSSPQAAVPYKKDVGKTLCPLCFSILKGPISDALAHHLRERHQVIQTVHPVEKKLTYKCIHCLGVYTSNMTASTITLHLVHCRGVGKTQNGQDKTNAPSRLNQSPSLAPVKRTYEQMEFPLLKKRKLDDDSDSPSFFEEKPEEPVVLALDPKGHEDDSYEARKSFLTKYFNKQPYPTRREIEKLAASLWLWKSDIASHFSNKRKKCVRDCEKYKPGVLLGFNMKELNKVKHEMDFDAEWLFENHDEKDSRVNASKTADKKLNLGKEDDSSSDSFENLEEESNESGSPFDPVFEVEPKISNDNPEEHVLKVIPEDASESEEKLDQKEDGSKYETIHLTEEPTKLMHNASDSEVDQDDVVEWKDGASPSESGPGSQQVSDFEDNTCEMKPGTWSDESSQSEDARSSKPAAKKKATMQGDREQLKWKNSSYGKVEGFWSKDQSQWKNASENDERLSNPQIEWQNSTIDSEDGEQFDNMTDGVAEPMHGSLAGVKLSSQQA
# UniProt O43707, whole entry, looked up: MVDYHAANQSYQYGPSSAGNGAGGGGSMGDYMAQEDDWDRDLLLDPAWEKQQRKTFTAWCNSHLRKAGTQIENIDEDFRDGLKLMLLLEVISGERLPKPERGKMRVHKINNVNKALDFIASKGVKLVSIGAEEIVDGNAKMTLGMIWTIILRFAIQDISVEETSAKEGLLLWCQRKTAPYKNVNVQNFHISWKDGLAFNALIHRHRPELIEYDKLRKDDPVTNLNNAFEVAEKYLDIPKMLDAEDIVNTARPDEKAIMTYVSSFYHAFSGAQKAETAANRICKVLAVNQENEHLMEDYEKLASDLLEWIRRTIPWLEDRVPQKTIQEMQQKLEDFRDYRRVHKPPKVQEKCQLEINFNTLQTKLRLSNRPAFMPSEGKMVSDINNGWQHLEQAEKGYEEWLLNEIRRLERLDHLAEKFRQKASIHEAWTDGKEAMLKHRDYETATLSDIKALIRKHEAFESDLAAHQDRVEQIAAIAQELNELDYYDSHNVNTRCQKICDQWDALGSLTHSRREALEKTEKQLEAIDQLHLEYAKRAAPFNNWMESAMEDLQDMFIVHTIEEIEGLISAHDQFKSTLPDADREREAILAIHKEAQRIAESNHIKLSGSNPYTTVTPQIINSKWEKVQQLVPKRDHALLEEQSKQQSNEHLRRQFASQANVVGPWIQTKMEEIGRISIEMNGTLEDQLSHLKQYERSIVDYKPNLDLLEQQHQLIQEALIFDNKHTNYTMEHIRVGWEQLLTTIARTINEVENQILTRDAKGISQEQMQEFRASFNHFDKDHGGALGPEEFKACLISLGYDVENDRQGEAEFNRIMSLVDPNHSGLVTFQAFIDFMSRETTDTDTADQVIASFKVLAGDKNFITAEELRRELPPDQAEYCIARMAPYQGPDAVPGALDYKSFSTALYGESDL
# UniProt P00813: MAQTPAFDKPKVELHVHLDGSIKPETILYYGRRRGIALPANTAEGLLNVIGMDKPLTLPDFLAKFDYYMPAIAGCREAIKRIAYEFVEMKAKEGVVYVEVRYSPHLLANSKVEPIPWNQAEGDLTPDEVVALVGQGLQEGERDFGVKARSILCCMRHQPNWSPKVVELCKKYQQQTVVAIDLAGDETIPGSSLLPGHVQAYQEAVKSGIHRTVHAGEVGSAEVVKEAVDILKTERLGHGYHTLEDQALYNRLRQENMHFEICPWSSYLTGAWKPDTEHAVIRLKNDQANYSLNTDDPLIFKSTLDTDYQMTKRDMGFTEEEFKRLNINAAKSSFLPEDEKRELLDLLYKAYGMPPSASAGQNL
# UniProt O96019, whole entry, looked up: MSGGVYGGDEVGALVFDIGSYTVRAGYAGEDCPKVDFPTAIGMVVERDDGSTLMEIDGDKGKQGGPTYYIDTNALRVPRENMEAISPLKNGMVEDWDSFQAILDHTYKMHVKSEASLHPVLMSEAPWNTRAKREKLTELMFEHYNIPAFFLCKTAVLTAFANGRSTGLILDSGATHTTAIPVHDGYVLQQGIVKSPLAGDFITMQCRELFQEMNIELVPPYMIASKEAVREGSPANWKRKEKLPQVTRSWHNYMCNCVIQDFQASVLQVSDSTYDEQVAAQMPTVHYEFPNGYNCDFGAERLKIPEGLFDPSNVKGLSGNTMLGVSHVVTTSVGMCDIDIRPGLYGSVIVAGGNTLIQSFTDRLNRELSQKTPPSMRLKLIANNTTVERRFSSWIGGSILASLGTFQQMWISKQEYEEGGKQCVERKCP
# UniProt O43865, whole entry, looked up: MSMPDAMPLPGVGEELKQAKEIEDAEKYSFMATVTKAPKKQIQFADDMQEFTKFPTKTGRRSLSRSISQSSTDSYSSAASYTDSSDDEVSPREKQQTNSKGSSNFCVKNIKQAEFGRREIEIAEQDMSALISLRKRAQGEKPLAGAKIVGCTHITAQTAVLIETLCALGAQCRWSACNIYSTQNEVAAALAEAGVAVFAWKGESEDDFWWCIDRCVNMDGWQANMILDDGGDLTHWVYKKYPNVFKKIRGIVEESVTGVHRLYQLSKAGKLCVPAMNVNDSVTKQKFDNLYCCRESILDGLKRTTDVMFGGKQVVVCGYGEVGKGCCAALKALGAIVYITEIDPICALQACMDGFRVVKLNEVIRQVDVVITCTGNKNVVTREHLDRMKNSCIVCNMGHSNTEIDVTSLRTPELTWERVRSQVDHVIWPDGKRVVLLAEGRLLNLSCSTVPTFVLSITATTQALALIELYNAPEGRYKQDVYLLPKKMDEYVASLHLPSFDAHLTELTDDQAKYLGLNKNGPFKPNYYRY
# UniProt P43652: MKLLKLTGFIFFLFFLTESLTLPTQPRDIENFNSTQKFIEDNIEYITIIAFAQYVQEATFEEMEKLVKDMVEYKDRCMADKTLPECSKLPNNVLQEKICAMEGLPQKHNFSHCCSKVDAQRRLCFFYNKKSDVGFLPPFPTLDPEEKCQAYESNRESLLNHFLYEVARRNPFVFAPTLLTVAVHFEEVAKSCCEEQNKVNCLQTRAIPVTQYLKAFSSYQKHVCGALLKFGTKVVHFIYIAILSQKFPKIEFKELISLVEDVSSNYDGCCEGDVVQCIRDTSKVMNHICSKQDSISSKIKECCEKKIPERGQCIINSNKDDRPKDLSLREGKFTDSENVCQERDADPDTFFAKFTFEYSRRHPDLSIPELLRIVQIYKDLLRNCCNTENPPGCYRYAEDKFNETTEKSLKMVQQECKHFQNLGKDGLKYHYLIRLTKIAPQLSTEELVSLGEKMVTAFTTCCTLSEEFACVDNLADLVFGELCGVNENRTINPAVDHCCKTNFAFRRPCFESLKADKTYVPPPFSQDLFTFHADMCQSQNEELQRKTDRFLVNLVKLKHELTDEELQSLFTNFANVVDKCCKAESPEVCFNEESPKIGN
# UniProt Q63HM1: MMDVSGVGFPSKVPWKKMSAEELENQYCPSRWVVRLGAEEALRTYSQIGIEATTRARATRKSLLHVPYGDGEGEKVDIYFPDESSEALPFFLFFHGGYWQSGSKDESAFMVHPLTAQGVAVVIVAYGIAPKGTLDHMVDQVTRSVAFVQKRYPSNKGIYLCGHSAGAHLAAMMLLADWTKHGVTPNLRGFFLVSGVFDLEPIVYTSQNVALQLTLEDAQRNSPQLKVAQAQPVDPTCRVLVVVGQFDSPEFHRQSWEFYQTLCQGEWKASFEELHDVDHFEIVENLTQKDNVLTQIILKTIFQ
# UniProt P24666: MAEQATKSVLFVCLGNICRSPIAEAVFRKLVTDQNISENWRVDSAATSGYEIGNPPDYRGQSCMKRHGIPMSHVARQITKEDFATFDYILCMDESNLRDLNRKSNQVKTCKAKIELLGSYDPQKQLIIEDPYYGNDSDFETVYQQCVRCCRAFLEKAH
# UniProt Q86TW2: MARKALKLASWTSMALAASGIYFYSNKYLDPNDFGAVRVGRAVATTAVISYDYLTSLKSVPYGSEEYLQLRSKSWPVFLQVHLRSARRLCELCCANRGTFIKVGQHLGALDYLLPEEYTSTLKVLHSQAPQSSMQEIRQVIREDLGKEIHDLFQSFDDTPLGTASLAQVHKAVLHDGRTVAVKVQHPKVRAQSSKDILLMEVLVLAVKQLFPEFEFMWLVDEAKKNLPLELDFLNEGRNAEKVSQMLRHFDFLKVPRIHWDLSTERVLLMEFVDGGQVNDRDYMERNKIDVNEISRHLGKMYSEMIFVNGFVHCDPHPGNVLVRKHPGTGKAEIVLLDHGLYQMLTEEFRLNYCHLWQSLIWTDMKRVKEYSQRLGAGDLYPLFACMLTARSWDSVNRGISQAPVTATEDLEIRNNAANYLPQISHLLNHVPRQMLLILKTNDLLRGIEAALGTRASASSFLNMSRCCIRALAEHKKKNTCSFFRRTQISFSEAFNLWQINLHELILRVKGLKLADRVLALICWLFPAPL
# UniProt Q9NUB1: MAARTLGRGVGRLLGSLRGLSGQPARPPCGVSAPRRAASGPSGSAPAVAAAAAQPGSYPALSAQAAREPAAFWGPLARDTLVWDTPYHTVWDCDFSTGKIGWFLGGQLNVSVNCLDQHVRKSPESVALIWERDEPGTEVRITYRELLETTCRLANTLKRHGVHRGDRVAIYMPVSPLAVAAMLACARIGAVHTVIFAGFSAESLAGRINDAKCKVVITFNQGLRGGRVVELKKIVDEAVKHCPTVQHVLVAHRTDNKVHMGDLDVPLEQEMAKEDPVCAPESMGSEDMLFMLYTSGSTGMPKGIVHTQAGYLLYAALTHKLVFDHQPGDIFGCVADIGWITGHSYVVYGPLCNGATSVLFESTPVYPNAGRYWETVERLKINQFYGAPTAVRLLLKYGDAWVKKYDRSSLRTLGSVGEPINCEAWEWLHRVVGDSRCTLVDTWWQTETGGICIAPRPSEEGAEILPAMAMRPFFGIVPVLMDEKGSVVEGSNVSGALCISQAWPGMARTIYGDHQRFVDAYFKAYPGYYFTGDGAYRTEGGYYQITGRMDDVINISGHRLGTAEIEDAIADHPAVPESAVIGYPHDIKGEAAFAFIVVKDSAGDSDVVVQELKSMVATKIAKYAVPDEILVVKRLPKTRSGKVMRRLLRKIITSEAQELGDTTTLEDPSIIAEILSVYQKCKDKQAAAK
# UniProt P55008: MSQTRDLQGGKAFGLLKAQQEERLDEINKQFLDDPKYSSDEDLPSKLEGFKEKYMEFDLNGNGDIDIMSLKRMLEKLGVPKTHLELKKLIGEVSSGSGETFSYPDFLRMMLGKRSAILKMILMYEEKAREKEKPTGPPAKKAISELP
# UniProt P14621: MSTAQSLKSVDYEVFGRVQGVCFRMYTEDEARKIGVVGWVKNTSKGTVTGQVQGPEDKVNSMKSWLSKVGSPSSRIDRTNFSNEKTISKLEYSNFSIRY
# UniProt Q96A54: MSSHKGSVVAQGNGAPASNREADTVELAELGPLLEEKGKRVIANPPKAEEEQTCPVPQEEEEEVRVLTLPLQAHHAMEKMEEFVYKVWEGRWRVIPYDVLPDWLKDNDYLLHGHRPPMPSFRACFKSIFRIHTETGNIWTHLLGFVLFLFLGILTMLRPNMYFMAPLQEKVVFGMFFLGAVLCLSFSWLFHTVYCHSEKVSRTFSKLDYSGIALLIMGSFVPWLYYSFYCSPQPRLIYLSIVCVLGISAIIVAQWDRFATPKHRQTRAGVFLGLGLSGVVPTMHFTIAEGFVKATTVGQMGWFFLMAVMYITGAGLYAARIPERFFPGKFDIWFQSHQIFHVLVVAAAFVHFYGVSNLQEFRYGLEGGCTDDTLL
# Some of the results follow.
# Assays:
# Experiment in all cases: log2 fold change, soluble protein after heating vs DMSO (PISA); higher = thermal stabilisation; K562 lysate, 10 uM; active = over 0.2 and 3.5 SD of the protein, either way, in both replicates (recomputed)
# [1] = compound: CCCS(=O)(=O)Nc1ccc(F)c(C(=O)c2c[nH]c3ncc(-c4ccc(Cl)cc4)cc23)c1F [vemurafenib]
# Procedure, shortened: (§1)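 To prepare the extract, K562 pellets were dounce-homogenised in PBS pH 7.4 with 1 mM MgCl2, giving crude material at 1 mg/mL protein. This was treated with 10 μM compound for 30 min, then heated in aliquots for 3 min over 48°C-58°C before pooling and addition of NP-40 to 0.5% at 4°C. Centrifugation at 21,000xg for 90 min left soluble protein in the supernatant, which TMTpro 16plex LC-MS/MS quantified with equalised channel sums. Results are log-two fold changes in thermal stability compared with solvent controls, from duplicates.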
# [2] = compound: CCCS(=O)(=O)Nc1ccc(F)c(C(=O)c2c[nH]c3ncc(Cl)cc23)c1F
# Procedure, shortened: as §1
# [3] = compound: CCN(CCCOc1ccc2c(Nc3cc(CC(=O)Nc4cccc(F)c4)[nH]n3)ncnc2c1)CCOP(=O)(O)O [barasertib]
# Procedure, shortened: as §1
# [4] = compound: CC[C@@H]1C(=O)N(C)c2cnc(Nc3ccc(C(=O)NC4CCN(C)CC4)cc3OC)nc2N1C1CCCC1
# Procedure, shortened: as §1
# [5] = compound: CC[C@@H]1C(=O)N(C)c2cnc(Nc3ccc(C(=O)N[C@H]4CC[C@H](N5CCN(CC6CC6)CC5)CC4)cc3OC)nc2N1C(C)C [volasertib]
# Procedure, shortened: as §1
# [6] = compound: CCn1c(C(=O)N(C2CC2)C2CC2)cc2c3c(ncn3C)c(Nc3cc(C)n(C)n3)nc21
# Procedure, shortened: as §1
# [7] = compound: CCn1cc(-c2ccnc3[nH]c(-c4cccc(CN(C)C)c4)cc23)c(-c2ccc(NC(=O)N(C)C)cc2)n1
# Procedure, shortened: as §1
# [8] = compound: CN1CCC(CNc2ccc3ncc(-c4cccc(OC(F)(F)F)c4)n3n2)CC1
# Procedure, shortened: as §1
# [9] = compound: CN1CCN(CCOc2cc(OC3CCOCC3)c3c(Nc4c(Cl)ccc5c4OCO5)ncnc3c2)CC1 [saracatinib]
# Procedure, shortened: as §1
# [10] = compound: CN1CCN(c2nc(C3=C(c4c[nH]c5ccccc45)C(=O)NC3=O)c3ccccc3n2)CC1 [sotrastaurin]
# Procedure, shortened: as §1
Target,log2 fold change [1],log2 fold change [2],log2 fold change [3],log2 fold change [4],log2 fold change [5],log2 fold change [6],log2 fold change [7],log2 fold change [8],log2 fold change [9],log2 fold change [10]
AGO3 (UniProt Q9H9G7),inactive: 0,inactive: 0.014,inactive: 0.025,inactive: 0.033,inactive: 0.019,inactive: -0.029,inactive: -0.014,inactive: 0.067,inactive: -0.003,inactive: 0.025
ADD2 (UniProt P35612),inactive: 0.03,inactive: -0.004,inactive: -0.011,inactive: 0.05,inactive: 0.028,inactive: 0.022,inactive: -0.009,inactive: 0.091,inactive: -0.022,inactive: 0.009
AK1 (UniProt P00568),inactive: 0.01,inactive: -0.036,inactive: -0.012,inactive: -0.027,inactive: 0.021,inactive: 0.017,active: 0.332,inactive: -0.135,inactive: -0.012,inactive: -0.024
ADNP (UniProt Q9H2P0),inactive: 0.004,inactive: 0.017,inactive: 0.048,inactive: -0.02,inactive: -0.05,inactive: 0.001,inactive: -0.08,inactive: 0.068,inactive: -0.03,inactive: 0.022
ACTN4 (UniProt O43707),inactive: 0.006,inactive: -0.011,inactive: -0.037,inactive: 0.04,inactive: 0.017,inactive: -0.032,inactive: 0.003,inactive: 0.022,inactive: 0.001,inactive: -0.015
ADA (UniProt P00813),inactive: -0.002,inactive: -0.013,inactive: 0.007,inactive: 0.018,inactive: 0.014,inactive: -0.015,inactive: -0.047,inactive: 0.108,inactive: -0.029,inactive: 0.061
ADSS1 (UniProt Q8N142),inactive: -0.002,inactive: 0.019,inactive: -0.075,inactive: 0.037,inactive: -0.012,inactive: -0.057,inactive: -0.096,inactive: 0.101,inactive: 0.007,inactive: 0.031
ACTL6A (UniProt O96019),inactive: 0.019,inactive: 0.012,inactive: -0.011,inactive: 0.016,inactive: 0,inactive: -0.005,inactive: -0.031,inactive: 0.007,inactive: 0.011,inactive: 0
ADPGK (UniProt Q9BRR6),inactive: -0.029,inactive: -0.013,inactive: -0.009,inactive: 0,inactive: 0.058,inactive: 0.065,inactive: -0.076,inactive: -0.005,inactive: -0.002,inactive: 0.01
AGTPBP1 (UniProt Q9UPW5),inactive: 0.151,inactive: 0.075,inactive: -0.223,inactive: 0.036,inactive: -0.089,inactive: -0.013,inactive: 0.013,active: -0.409,inactive: 0.108,inactive: -0.126
AGPS (UniProt O00116),inactive: 0.028,inactive: 0.008,inactive: -0.021,inactive: 0.06,inactive: 0.011,inactive: 0.025,inactive: -0.082,inactive: 0.012,inactive: -0.009,inactive: -0.016
AHCYL1 (UniProt O43865),inactive: 0.018,inactive: 0.021,inactive: -0.001,inactive: 0.001,inactive: -0.073,inactive: -0.021,inactive: -0.055,inactive: -0.012,inactive: -0.021,inactive: 0.006
ACTR2 (UniProt P61160),inactive: -0.003,inactive: -0.01,inactive: -0.012,inactive: 0.017,inactive: 0.021,inactive: -0.017,inactive: -0.01,inactive: 0.018,inactive: -0.028,inactive: 0.011
ACTR5 (UniProt Q9H9F9),inactive: 0.03,,inactive: 0.055,inactive: 0.058,,inactive: 0.035,inactive: -0.173,inactive: -0.072,inactive: 0.155,inactive: 0.067
AGO1 (UniProt Q9UL18),inactive: -0.016,inactive: 0.014,inactive: 0.023,inactive: 0.172,inactive: 0.028,inactive: -0.013,inactive: 0.129,inactive: -0.054,inactive: 0.016,inactive: 0.005
AFM (UniProt P43652),inactive: 0.184,,,inactive: -0.012,,,inactive: 0.004,inactive: -0.031,,
AGPAT5 (UniProt Q9NUQ2),inactive: 0.029,inactive: 0.059,inactive: 0.006,inactive: -0.056,inactive: -0.031,inactive: -0.015,inactive: -0.001,inactive: -0.126,inactive: 0.05,inactive: 0.021

# A stretch of the results above:
Target,log2 fold change [1],log2 fold change [2],log2 fold change [3],log2 fold change [4],log2 fold change [5],log2 fold change [6],log2 fold change [7],log2 fold change [8],log2 fold change [9],log2 fold change [10]
AGO1 (UniProt Q9UL18),inactive: -0.016,inactive: 0.014,inactive: 0.023,inactive: 0.172,inactive: 0.028,inactive: -0.013,inactive: 0.129,inactive: -0.054,inactive: 0.016,inactive: 0.005
AFM (UniProt P43652),inactive: 0.184,,,inactive: -0.012,,,inactive: 0.004,inactive: -0.031,,

# Remaining list, next part:

Target,log2 fold change [1],log2 fold change [2],log2 fold change [3],log2 fold change [4],log2 fold change [5],log2 fold change [6],log2 fold change [7],log2 fold change [8],log2 fold change [9],log2 fold change [10]
ADIPOR2 (UniProt Q86V24),inactive: -0.049,inactive: 0.028,inactive: 0.252,inactive: 0.054,inactive: 0.015,inactive: -0.073,,,inactive: 0.01,inactive: 0.024
ACTB (UniProt C9JTX5),inactive: -0.403,inactive: -0.002,inactive: 0.355,,inactive: -0.047,,inactive: 0.778,inactive: -0.157,inactive: 0.063,inactive: -0.017
ACTR1A (UniProt P61163),inactive: 0,inactive: 0.017,inactive: -0.015,inactive: 0.017,inactive: 0.013,inactive: -0.03,inactive: -0.001,inactive: 0.05,inactive: -0.009,inactive: -0.023
ADAM17 (UniProt P78536),inactive: 0.071,,inactive: -0.184,inactive: -0.151,,inactive: -0.027,inactive: 0.065,inactive: 0.001,inactive: -0.011,inactive: 0.002
AFDN (UniProt A8MQ02),inactive: 0.034,inactive: 0.122,,,inactive: -0.039,,,,,
"ACTN2, A0A494C031",inactive: 0.273,inactive: 0.043,inactive: -0.041,inactive: 0.156,inactive: 0.068,inactive: -0.231,inactive: -0.092,inactive: 0.228,,inactive: 0.042
AGAP1 (UniProt Q9UPQ3),inactive: 0.264,inactive: 0.027,inactive: 0.055,,inactive: -0.029,inactive: -0.054,inactive: 0.052,inactive: 0.001,inactive: 0.056,inactive: 0.008
AFMID isoform 2 (UniProt Q63HM1),inactive: -0.051,,,inactive: -0.068,,inactive: -0.205,inactive: -0.021,inactive: 0.012,,inactive: 0.031
ACP1 isoform 2 (UniProt P24666),inactive: 0.056,inactive: -0.005,inactive: 0.03,inactive: 0.046,inactive: -0.033,inactive: -0.023,inactive: 0,inactive: 0.014,inactive: 0.004,inactive: -0.024
ADCK1 (UniProt Q86TW2),inactive: -0.11,,,inactive: 0.085,,,inactive: -0.141,inactive: -0.066,,
ACSS1 (UniProt Q9NUB1),,inactive: 0.099,inactive: 0.101,inactive: 0.141,inactive: 0,inactive: -0.045,inactive: -0.158,inactive: -0.02,inactive: -0.005,inactive: 0.081
AIF1 (UniProt P55008),inactive: -0.596,inactive: -0.069,,,inactive: 0.071,inactive: 0.159,inactive: 0.174,inactive: -0.124,inactive: 0.08,inactive: 0.086
ACYP2 (UniProt P14621),inactive: -0.245,inactive: -0.023,inactive: 0.04,,inactive: 0.011,inactive: -0.007,inactive: 0.189,inactive: -0.036,,inactive: -0.019
ADIPOR1 (UniProt Q96A54),inactive: -0.003,,inactive: 0.133,inactive: 0.002,,inactive: 0.019,inactive: 0.075,inactive: -0.023,inactive: 0.147,inactive: 0.021
ADD2 isoform 9 (UniProt P35612),inactive: 0.086,inactive: -0.179,,inactive: 0.201,inactive: 0.068,inactive: 0.02,inactive: 0.343,inactive: -0.474,inactive: -0.058,
ACTG1 (UniProt I3L4N8),inactive: 0.131,inactive: -0.062,inactive: 0.218,inactive: -0.208,inactive: -0.006,inactive: -0.384,inactive: 0.94,inactive: -0.091,inactive: -0.002,inactive: 0.001
